{"source": "patent US4031211A", "about": "“Adriamycin esters, their preparation and use” (priority 1975, dated 1977)", "key": {"[1]": {"system": "Hela", "test": "HeLa colony inhibition test", "format": "cell-based", "settings": "Table 6, treatment per 24 hours"}, "[2]": {"system": "mouse embryo fibroblasts", "test": "Inhibition of mouse embryo fibroblasts proliferation", "format": "cell-based", "settings": "Table 6, treatment per 72 hours"}}, "note": "For at least one compound, name, drawing or mass did not settle the structure.", "data": [{"smiles": "CCCCCC(=O)SCC(=O)OCC(=O)C1(O)Cc2c(O)c3c(c(O)c2C(OC2CC(N)C(O)C(C)O2)C1)C(=O)c1c(OC)cccc1C3=O.Cl", "note": "(centres unmarked) [adriamycin-14-0-hexanoyl thioglycolate, Adriamycin-14-0-Hexanoyl Thioglycolate Hydrochloride]", "values": [{"measurement": "ID50 Hela", "setting": "[1]", "result": 175, "unit": "mg/mL"}, {"measurement": "ID50 MEF", "setting": "[2]", "result": 60, "unit": "mg/mL"}]}]}
